Data taken from US20180037641A1.
These are yes or no findings as the source states them, for the method shown. Some results given as binding are weak or reduced against the parent protein; the word gives no strength.

Sequences of proteins named here, by UniProt entry; tags and fusion partners are left off. A change or cut given only in a name is not applied to a line headed by its entry.
UniProt P10636: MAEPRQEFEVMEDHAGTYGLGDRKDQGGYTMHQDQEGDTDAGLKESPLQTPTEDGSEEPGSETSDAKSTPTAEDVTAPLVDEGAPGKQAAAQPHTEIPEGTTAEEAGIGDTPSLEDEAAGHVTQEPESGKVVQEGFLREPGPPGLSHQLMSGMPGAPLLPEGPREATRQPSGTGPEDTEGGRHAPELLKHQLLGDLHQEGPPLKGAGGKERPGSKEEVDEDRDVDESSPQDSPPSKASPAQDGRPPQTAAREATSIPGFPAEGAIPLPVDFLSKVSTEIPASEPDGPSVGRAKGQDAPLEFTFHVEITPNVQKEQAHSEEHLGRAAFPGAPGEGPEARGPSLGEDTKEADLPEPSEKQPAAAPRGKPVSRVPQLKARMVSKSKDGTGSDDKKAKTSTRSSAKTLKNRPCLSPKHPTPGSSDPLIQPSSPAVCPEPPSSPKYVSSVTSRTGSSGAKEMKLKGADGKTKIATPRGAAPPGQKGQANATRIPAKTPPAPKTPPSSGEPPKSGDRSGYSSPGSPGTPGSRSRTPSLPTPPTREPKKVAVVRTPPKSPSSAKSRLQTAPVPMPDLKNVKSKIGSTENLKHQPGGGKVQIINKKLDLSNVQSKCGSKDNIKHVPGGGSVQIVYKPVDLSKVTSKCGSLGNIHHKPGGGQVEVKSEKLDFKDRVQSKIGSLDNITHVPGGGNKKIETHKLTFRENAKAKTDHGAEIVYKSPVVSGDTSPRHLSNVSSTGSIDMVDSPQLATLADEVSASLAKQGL

Key:
[1] = biological target: human tau fibrils (human) (UniProt P10636); assay: SPR, human tau fibrils immobilised on CM-5 chip (FIG. 31); rates could not be calculated
[2] = biological target: tau in neurofibrillary tangles (human) (UniProt P10636); assay: immunostaining of human AD frontal cortex with biotinylated HJ8.5
[3] = biological target: human tau fibrils (human) (UniProt P10636); assay: SPR (Biacore), human tau fibrils immobilised, antibody injected
[4] = biological target: tau in neurofibrillary tangles (human) (UniProt P10636); assay: staining, not described
[5] = biological target: tau in neurofibrillary tangles (human) (UniProt P10636); assay: staining of human AD brain NFT's
[6] = biological target: tau in neurofibrillary tangles (human) (UniProt P10636); assay: immunostaining of human AD brain sections

Measured: binding

B1: HJ8.5 (antibody, V domains shown)
VH: EVKVEESGGGLVQPGGSMKLSCVVSGFTFSNYWVNWVRQSPEKGLEWVAQIRLKSDNYATHYEESVKGRFTISRDDSKSSVYLQMNNLRAEDSGIYYCTNWEDYWGQGTTLTVSS
VL: DIVLTQSPASLAVSLGQRATISCRASQSVSTSRYSYIHWYQQKPGQPPKLLIKYASNLESGVPARFSGSGSGTDFTLNIHPLEEEDAATYYCHHSWEIPLTFGAGTKLELK
binds: all assays above
